These are yes or no findings as the source states them, for the method shown. Some binding calls cover weakened binding; strength is not graded here. Where a sequence is shown, tags or fusion partners need not be part of it.
B1: IgG with feline IgG1a Fc variant S252M, L309D (antibody)
heavy: DVQLVESGGDLVKPGGSLRLTCVASGLSLTSDSMSWVRQAPGKGLQWVSTLWSNRGTYYTDSVKGRFTISKDNAENTLYLQMNNLKTEDTATYYCASIYYYEADYLHWYFDFWGQGALVTVSSASTTAPSVFPLAPSCGTTSGATVALACLVLGYFPEPVTVSWNSGALTSGVHTFPAVLQASGLYSLSSMVTVPSSRWLSDTFTCNVAHPPSNTKVDKTVRKTDHPPGPKPCDCPKCPPPEAAGGPSIFIFPPKPKDTLMISRTPEVTCLVVDLGPDDSDVQITWFVDNTQVYTAKTSPREEQFNSTYRVVSVLPIDHQDWLKGKEFKCKVNSKSLPSPIERTISKAKGQPHEPQVYVLPPAQEELSRNKVSVTCLIKSFHPPDIAVEWEITGQPEPENNYRTTPPQLDSDGTYFVYSKLSVDRSHWQRGNTYTCSVSHEALHSHHTQKSLTQSPG
light: EIQMTQSPTSLSASVGDRVTITCRASEGIANNLSWYQQTPGKAPKLLIYATSNLHSGVPSRFSGSGSGTDFTLTISSLQPEDFATYYCQQGFKWPLTFGGGTKLEITRSDAQPSVFLFQPSLDELHTGSASIVCILNDFYPKEVNVKWKVDGVVQNKGIQESTTEQNSKDSTYSLSSTLTMSSTEYQSHEKFSCEVTHKSLASTLVKSFNRSECQRE
notes: IgG1a constant domain with MALA mutations (M234A, L244A as printed); variable domains from WO 2023/97275
B2: IgG with feline IgG1a Fc variant S252M, L309V (antibody)
heavy: DVQLVESGGDLVKPGGSLRLTCVASGLSLTSDSMSWVRQAPGKGLQWVSTLWSNRGTYYTDSVKGRFTISKDNAENTLYLQMNNLKTEDTATYYCASIYYYEADYLHWYFDFWGQGALVTVSSASTTAPSVFPLAPSCGTTSGATVALACLVLGYFPEPVTVSWNSGALTSGVHTFPAVLQASGLYSLSSMVTVPSSRWLSDTFTCNVAHPPSNTKVDKTVRKTDHPPGPKPCDCPKCPPPEAAGGPSIFIFPPKPKDTLMISRTPEVTCLVVDLGPDDSDVQITWFVDNTQVYTAKTSPREEQFNSTYRVVSVLPIVHQDWLKGKEFKCKVNSKSLPSPIERTISKAKGQPHEPQVYVLPPAQEELSRNKVSVTCLIKSFHPPDIAVEWEITGQPEPENNYRTTPPQLDSDGTYFVYSKLSVDRSHWQRGNTYTCSVSHEALHSHHTQKSLTQSPG
light: EIQMTQSPTSLSASVGDRVTITCRASEGIANNLSWYQQTPGKAPKLLIYATSNLHSGVPSRFSGSGSGTDFTLTISSLQPEDFATYYCQQGFKWPLTFGGGTKLEITRSDAQPSVFLFQPSLDELHTGSASIVCILNDFYPKEVNVKWKVDGVVQNKGIQESTTEQNSKDSTYSLSSTLTMSSTEYQSHEKFSCEVTHKSLASTLVKSFNRSECQRE
notes: as for B1
B3: IgG with feline IgG1a Fc variant S252M, Q311V (antibody)
heavy: DVQLVESGGDLVKPGGSLRLTCVASGLSLTSDSMSWVRQAPGKGLQWVSTLWSNRGTYYTDSVKGRFTISKDNAENTLYLQMNNLKTEDTATYYCASIYYYEADYLHWYFDFWGQGALVTVSSASTTAPSVFPLAPSCGTTSGATVALACLVLGYFPEPVTVSWNSGALTSGVHTFPAVLQASGLYSLSSMVTVPSSRWLSDTFTCNVAHPPSNTKVDKTVRKTDHPPGPKPCDCPKCPPPEAAGGPSIFIFPPKPKDTLMISRTPEVTCLVVDLGPDDSDVQITWFVDNTQVYTAKTSPREEQFNSTYRVVSVLPILHVDWLKGKEFKCKVNSKSLPSPIERTISKAKGQPHEPQVYVLPPAQEELSRNKVSVTCLIKSFHPPDIAVEWEITGQPEPENNYRTTPPQLDSDGTYFVYSKLSVDRSHWQRGNTYTCSVSHEALHSHHTQKSLTQSPG
light: EIQMTQSPTSLSASVGDRVTITCRASEGIANNLSWYQQTPGKAPKLLIYATSNLHSGVPSRFSGSGSGTDFTLTISSLQPEDFATYYCQQGFKWPLTFGGGTKLEITRSDAQPSVFLFQPSLDELHTGSASIVCILNDFYPKEVNVKWKVDGVVQNKGIQESTTEQNSKDSTYSLSSTLTMSSTEYQSHEKFSCEVTHKSLASTLVKSFNRSECQRE
notes: as for B1
B4: IgG with feline IgG1a Fc variant S252M, R301L (antibody)
heavy: DVQLVESGGDLVKPGGSLRLTCVASGLSLTSDSMSWVRQAPGKGLQWVSTLWSNRGTYYTDSVKGRFTISKDNAENTLYLQMNNLKTEDTATYYCASIYYYEADYLHWYFDFWGQGALVTVSSASTTAPSVFPLAPSCGTTSGATVALACLVLGYFPEPVTVSWNSGALTSGVHTFPAVLQASGLYSLSSMVTVPSSRWLSDTFTCNVAHPPSNTKVDKTVRKTDHPPGPKPCDCPKCPPPEAAGGPSIFIFPPKPKDTLMISRTPEVTCLVVDLGPDDSDVQITWFVDNTQVYTAKTSPREEQFNSTYLVVSVLPILHQDWLKGKEFKCKVNSKSLPSPIERTISKAKGQPHEPQVYVLPPAQEELSRNKVSVTCLIKSFHPPDIAVEWEITGQPEPENNYRTTPPQLDSDGTYFVYSKLSVDRSHWQRGNTYTCSVSHEALHSHHTQKSLTQSPG
light: EIQMTQSPTSLSASVGDRVTITCRASEGIANNLSWYQQTPGKAPKLLIYATSNLHSGVPSRFSGSGSGTDFTLTISSLQPEDFATYYCQQGFKWPLTFGGGTKLEITRSDAQPSVFLFQPSLDELHTGSASIVCILNDFYPKEVNVKWKVDGVVQNKGIQESTTEQNSKDSTYSLSSTLTMSSTEYQSHEKFSCEVTHKSLASTLVKSFNRSECQRE
notes: as for B1
B5: IgG with feline IgG1a Fc variant S252M, R301V (antibody)
heavy: DVQLVESGGDLVKPGGSLRLTCVASGLSLTSDSMSWVRQAPGKGLQWVSTLWSNRGTYYTDSVKGRFTISKDNAENTLYLQMNNLKTEDTATYYCASIYYYEADYLHWYFDFWGQGALVTVSSASTTAPSVFPLAPSCGTTSGATVALACLVLGYFPEPVTVSWNSGALTSGVHTFPAVLQASGLYSLSSMVTVPSSRWLSDTFTCNVAHPPSNTKVDKTVRKTDHPPGPKPCDCPKCPPPEAAGGPSIFIFPPKPKDTLMISRTPEVTCLVVDLGPDDSDVQITWFVDNTQVYTAKTSPREEQFNSTYVVVSVLPILHQDWLKGKEFKCKVNSKSLPSPIERTISKAKGQPHEPQVYVLPPAQEELSRNKVSVTCLIKSFHPPDIAVEWEITGQPEPENNYRTTPPQLDSDGTYFVYSKLSVDRSHWQRGNTYTCSVSHEALHSHHTQKSLTQSPG
light: EIQMTQSPTSLSASVGDRVTITCRASEGIANNLSWYQQTPGKAPKLLIYATSNLHSGVPSRFSGSGSGTDFTLTISSLQPEDFATYYCQQGFKWPLTFGGGTKLEITRSDAQPSVFLFQPSLDELHTGSASIVCILNDFYPKEVNVKWKVDGVVQNKGIQESTTEQNSKDSTYSLSSTLTMSSTEYQSHEKFSCEVTHKSLASTLVKSFNRSECQRE
notes: as for B1
B6: IgG with feline IgG1a Fc variant S252M, R301Y (antibody)
heavy: DVQLVESGGDLVKPGGSLRLTCVASGLSLTSDSMSWVRQAPGKGLQWVSTLWSNRGTYYTDSVKGRFTISKDNAENTLYLQMNNLKTEDTATYYCASIYYYEADYLHWYFDFWGQGALVTVSSASTTAPSVFPLAPSCGTTSGATVALACLVLGYFPEPVTVSWNSGALTSGVHTFPAVLQASGLYSLSSMVTVPSSRWLSDTFTCNVAHPPSNTKVDKTVRKTDHPPGPKPCDCPKCPPPEAAGGPSIFIFPPKPKDTLMISRTPEVTCLVVDLGPDDSDVQITWFVDNTQVYTAKTSPREEQFNSTYYVVSVLPILHQDWLKGKEFKCKVNSKSLPSPIERTISKAKGQPHEPQVYVLPPAQEELSRNKVSVTCLIKSFHPPDIAVEWEITGQPEPENNYRTTPPQLDSDGTYFVYSKLSVDRSHWQRGNTYTCSVSHEALHSHHTQKSLTQSPG
light: EIQMTQSPTSLSASVGDRVTITCRASEGIANNLSWYQQTPGKAPKLLIYATSNLHSGVPSRFSGSGSGTDFTLTISSLQPEDFATYYCQQGFKWPLTFGGGTKLEITRSDAQPSVFLFQPSLDELHTGSASIVCILNDFYPKEVNVKWKVDGVVQNKGIQESTTEQNSKDSTYSLSSTLTMSSTEYQSHEKFSCEVTHKSLASTLVKSFNRSECQRE
notes: as for B1
B7: IgG with feline IgG1a Fc variant S252M, R392D (antibody)
heavy: DVQLVESGGDLVKPGGSLRLTCVASGLSLTSDSMSWVRQAPGKGLQWVSTLWSNRGTYYTDSVKGRFTISKDNAENTLYLQMNNLKTEDTATYYCASIYYYEADYLHWYFDFWGQGALVTVSSASTTAPSVFPLAPSCGTTSGATVALACLVLGYFPEPVTVSWNSGALTSGVHTFPAVLQASGLYSLSSMVTVPSSRWLSDTFTCNVAHPPSNTKVDKTVRKTDHPPGPKPCDCPKCPPPEAAGGPSIFIFPPKPKDTLMISRTPEVTCLVVDLGPDDSDVQITWFVDNTQVYTAKTSPREEQFNSTYRVVSVLPILHQDWLKGKEFKCKVNSKSLPSPIERTISKAKGQPHEPQVYVLPPAQEELSRNKVSVTCLIKSFHPPDIAVEWEITGQPEPENNYDTTPPQLDSDGTYFVYSKLSVDRSHWQRGNTYTCSVSHEALHSHHTQKSLTQSPG
light: EIQMTQSPTSLSASVGDRVTITCRASEGIANNLSWYQQTPGKAPKLLIYATSNLHSGVPSRFSGSGSGTDFTLTISSLQPEDFATYYCQQGFKWPLTFGGGTKLEITRSDAQPSVFLFQPSLDELHTGSASIVCILNDFYPKEVNVKWKVDGVVQNKGIQESTTEQNSKDSTYSLSSTLTMSSTEYQSHEKFSCEVTHKSLASTLVKSFNRSECQRE
notes: as for B1
B8: IgG with feline IgG1a Fc variant S252M, R392E (antibody)
heavy: DVQLVESGGDLVKPGGSLRLTCVASGLSLTSDSMSWVRQAPGKGLQWVSTLWSNRGTYYTDSVKGRFTISKDNAENTLYLQMNNLKTEDTATYYCASIYYYEADYLHWYFDFWGQGALVTVSSASTTAPSVFPLAPSCGTTSGATVALACLVLGYFPEPVTVSWNSGALTSGVHTFPAVLQASGLYSLSSMVTVPSSRWLSDTFTCNVAHPPSNTKVDKTVRKTDHPPGPKPCDCPKCPPPEAAGGPSIFIFPPKPKDTLMISRTPEVTCLVVDLGPDDSDVQITWFVDNTQVYTAKTSPREEQFNSTYRVVSVLPILHQDWLKGKEFKCKVNSKSLPSPIERTISKAKGQPHEPQVYVLPPAQEELSRNKVSVTCLIKSFHPPDIAVEWEITGQPEPENNYETTPPQLDSDGTYFVYSKLSVDRSHWQRGNTYTCSVSHEALHSHHTQKSLTQSPG
light: EIQMTQSPTSLSASVGDRVTITCRASEGIANNLSWYQQTPGKAPKLLIYATSNLHSGVPSRFSGSGSGTDFTLTISSLQPEDFATYYCQQGFKWPLTFGGGTKLEITRSDAQPSVFLFQPSLDELHTGSASIVCILNDFYPKEVNVKWKVDGVVQNKGIQESTTEQNSKDSTYSLSSTLTMSSTEYQSHEKFSCEVTHKSLASTLVKSFNRSECQRE
notes: as for B1
B9: IgG with feline IgG1a Fc variant S252M, T286D (antibody)
heavy: DVQLVESGGDLVKPGGSLRLTCVASGLSLTSDSMSWVRQAPGKGLQWVSTLWSNRGTYYTDSVKGRFTISKDNAENTLYLQMNNLKTEDTATYYCASIYYYEADYLHWYFDFWGQGALVTVSSASTTAPSVFPLAPSCGTTSGATVALACLVLGYFPEPVTVSWNSGALTSGVHTFPAVLQASGLYSLSSMVTVPSSRWLSDTFTCNVAHPPSNTKVDKTVRKTDHPPGPKPCDCPKCPPPEAAGGPSIFIFPPKPKDTLMISRTPEVTCLVVDLGPDDSDVQITWFVDNTQVYDAKTSPREEQFNSTYRVVSVLPILHQDWLKGKEFKCKVNSKSLPSPIERTISKAKGQPHEPQVYVLPPAQEELSRNKVSVTCLIKSFHPPDIAVEWEITGQPEPENNYRTTPPQLDSDGTYFVYSKLSVDRSHWQRGNTYTCSVSHEALHSHHTQKSLTQSPG
light: EIQMTQSPTSLSASVGDRVTITCRASEGIANNLSWYQQTPGKAPKLLIYATSNLHSGVPSRFSGSGSGTDFTLTISSLQPEDFATYYCQQGFKWPLTFGGGTKLEITRSDAQPSVFLFQPSLDELHTGSASIVCILNDFYPKEVNVKWKVDGVVQNKGIQESTTEQNSKDSTYSLSSTLTMSSTEYQSHEKFSCEVTHKSLASTLVKSFNRSECQRE
notes: as for B1

The chains behind the UniProt entries cited, without tags or fusion partners. Where a name states a change or a piece, a line headed by the entry shows the natural chain unless it says otherwise.
UniProt Q5MGS7: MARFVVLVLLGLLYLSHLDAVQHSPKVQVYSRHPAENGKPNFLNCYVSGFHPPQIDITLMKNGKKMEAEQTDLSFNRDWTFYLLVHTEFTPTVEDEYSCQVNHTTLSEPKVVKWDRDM

target: feline FcRn (soluble portion of large subunit p51 isoform X1 with C-terminal 6xHis-tag, co-expressed with feline beta2-microglobulin with C-terminal STREP-TAG II) (feline) (UniProt Q5MGS7); test: SPR, pH 5.9

binding, binds:
B1
B2
B3
B4
B5
B6
B7
B8
B9

Reference: patent publication US20240209062A1 (INVETX, published 2024)
